Results taken from US20240210413.
Construct, isoform or probe ends are uncertain for at least one entry. For some assays here: At least one result comes from cells or an extract, where the contact may be indirect. For some assays here: Negatives hold for the conditions tested.

Legend:
Assay in all cases: binding assay
whole egg powder protein = conditions: 3'-thiol (sh) after poly-T tail [3'-end thiol (SH) left out]; SERS intensity close to negative control; protein mixture; protein in an extract; protein details: 10 mg/mL whole egg powder solution; label: gold nanorod; single-stranded DNA; letters built from the parent sequence and the stated change
soybean protein extract = conditions: 3'-thiol (sh) after poly-T tail [3'-end thiol (SH) left out]; SERS intensity close to negative control; protein mixture; protein in an extract; label: gold nanorod; single-stranded DNA; letters built from the parent sequence and the stated change
wheat gliadin (gluten) = conditions: 3'-thiol (sh) after poly-T tail [3'-end thiol (SH) left out]; SERS gold nanorod dimer assay, 4-MBA signal at 1078 cm-1, 45 min room temperature; detection limit 35.06 ng/mL, quantitation limit 116.87 ng/mL; no Kd given; purified native protein; label: gold nanorod; single-stranded DNA; letters built from the parent sequence and the stated change
peanut protein extract = conditions: 3'-thiol (sh) after poly-T tail [3'-end thiol (SH) left out]; SERS intensity close to negative control; protein mixture; protein in an extract; label: gold nanorod; single-stranded DNA; letters built from the parent sequence and the stated change
milk powder protein = conditions: 3'-thiol (sh) after poly-T tail [3'-end thiol (SH) left out]; SERS intensity close to negative control; protein mixture; protein in an extract; protein details: 10 mg/mL milk powder solution; label: gold nanorod; single-stranded DNA; letters built from the parent sequence and the stated change
fish protein extract = conditions: 3'-thiol (sh) after poly-T tail [3'-end thiol (SH) left out]; SERS intensity close to negative control; protein mixture; protein in an extract; protein details: whole protein extract (Kaiji kit); label: gold nanorod; single-stranded DNA; letters built from the parent sequence and the stated change
nut protein extract = conditions: 3'-thiol (sh) after poly-T tail [3'-end thiol (SH) left out]; SERS intensity close to negative control; protein mixture; protein in an extract; label: gold nanorod; single-stranded DNA; letters built from the parent sequence and the stated change
shrimp protein extract = conditions: 3'-thiol (sh) after poly-T tail [3'-end thiol (SH) left out]; SERS intensity close to negative control; protein mixture; protein in an extract; protein details: whole protein extract (Kaiji kit); label: gold nanorod; single-stranded DNA; letters built from the parent sequence and the stated change

“CCAGTCTCCCGTTTACCGCGCCTACACATGTCTGAATGCCTTTTTTTTTTTTTTTTTT [gliadin aptamer (Apt)]”: no binding (whole egg powder protein); no binding (soybean protein extract); binds (wheat gliadin (gluten)). “CCAGTCTCCCGTTTACCGCGCCTACACATGTCTGAATGCCTTTTTTTTTTTTTTTTTT [gliadin aptamer (Apt)]”: no binding (peanut protein extract); no binding (milk powder protein); no binding (fish protein extract). “CCAGTCTCCCGTTTACCGCGCCTACACATGTCTGAATGCCTTTTTTTTTTTTTTTTTT [gliadin aptamer (Apt)]”: no binding (nut protein extract); no binding (shrimp protein extract).
